From ChEMBL document CHEMBL3988442, “University of Dundee, Small-Polar-MMV Screening Library” (2021).

The chains behind the UniProt entries cited, without tags or fusion partners. Residues count along the entry.
UniProt Q4DA54, 1-478: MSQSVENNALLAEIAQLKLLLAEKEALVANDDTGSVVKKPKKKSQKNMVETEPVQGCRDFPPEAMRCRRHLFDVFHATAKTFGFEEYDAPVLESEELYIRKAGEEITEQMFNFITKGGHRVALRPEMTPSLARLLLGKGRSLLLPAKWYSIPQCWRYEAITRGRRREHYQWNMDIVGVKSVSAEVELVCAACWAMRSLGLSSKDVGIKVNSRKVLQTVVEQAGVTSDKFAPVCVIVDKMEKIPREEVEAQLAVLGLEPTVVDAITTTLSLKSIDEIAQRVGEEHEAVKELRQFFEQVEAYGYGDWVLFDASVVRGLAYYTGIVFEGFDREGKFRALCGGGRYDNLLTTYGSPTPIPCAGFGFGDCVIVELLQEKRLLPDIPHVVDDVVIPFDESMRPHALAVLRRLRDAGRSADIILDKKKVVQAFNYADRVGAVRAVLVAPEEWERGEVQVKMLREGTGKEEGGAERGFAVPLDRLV
UniProt P9WNZ1, whole entry: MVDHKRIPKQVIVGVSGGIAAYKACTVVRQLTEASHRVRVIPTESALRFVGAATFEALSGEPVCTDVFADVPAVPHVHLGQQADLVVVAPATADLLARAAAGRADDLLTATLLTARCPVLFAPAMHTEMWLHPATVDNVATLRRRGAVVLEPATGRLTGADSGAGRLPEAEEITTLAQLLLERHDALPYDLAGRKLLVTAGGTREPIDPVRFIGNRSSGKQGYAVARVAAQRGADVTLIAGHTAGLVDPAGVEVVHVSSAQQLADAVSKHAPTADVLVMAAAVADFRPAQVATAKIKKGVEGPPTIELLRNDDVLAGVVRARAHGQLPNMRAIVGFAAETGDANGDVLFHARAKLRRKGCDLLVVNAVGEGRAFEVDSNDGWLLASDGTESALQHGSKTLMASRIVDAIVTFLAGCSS
UniProt P9WPC5, whole entry: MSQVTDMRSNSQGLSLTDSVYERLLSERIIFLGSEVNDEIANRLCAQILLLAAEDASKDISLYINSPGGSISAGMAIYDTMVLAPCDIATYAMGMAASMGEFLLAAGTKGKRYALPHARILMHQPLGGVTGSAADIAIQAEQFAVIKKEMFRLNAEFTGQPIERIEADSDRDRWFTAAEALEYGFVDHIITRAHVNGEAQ
UniProt P9WPC3, whole entry partner: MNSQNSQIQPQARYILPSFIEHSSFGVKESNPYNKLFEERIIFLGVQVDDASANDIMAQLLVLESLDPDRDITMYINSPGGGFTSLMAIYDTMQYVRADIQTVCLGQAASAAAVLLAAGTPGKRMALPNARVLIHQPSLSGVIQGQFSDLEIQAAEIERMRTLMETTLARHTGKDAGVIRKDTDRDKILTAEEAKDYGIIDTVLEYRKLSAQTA
UniProt Q8IDJ8, 1-583: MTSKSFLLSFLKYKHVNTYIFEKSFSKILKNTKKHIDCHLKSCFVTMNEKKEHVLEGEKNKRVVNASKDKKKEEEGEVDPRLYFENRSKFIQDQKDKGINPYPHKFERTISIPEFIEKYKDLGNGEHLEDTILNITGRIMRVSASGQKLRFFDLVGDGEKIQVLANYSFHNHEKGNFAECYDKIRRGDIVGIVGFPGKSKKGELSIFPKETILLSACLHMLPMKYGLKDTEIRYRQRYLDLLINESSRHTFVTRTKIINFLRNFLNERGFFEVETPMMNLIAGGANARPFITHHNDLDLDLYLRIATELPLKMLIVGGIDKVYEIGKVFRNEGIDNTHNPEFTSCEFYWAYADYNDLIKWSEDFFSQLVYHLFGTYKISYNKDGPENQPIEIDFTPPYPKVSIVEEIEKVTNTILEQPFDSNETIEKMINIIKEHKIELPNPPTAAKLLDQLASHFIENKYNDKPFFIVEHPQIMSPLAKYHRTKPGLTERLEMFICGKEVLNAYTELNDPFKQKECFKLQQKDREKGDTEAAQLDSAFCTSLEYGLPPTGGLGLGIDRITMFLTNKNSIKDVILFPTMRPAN

Results are given as percent effect. How 0% and 100% were set is not recorded. Most values in the screen are low, and negative values occur. This is an unselected part of the compounds tested. A dash means the value is not listed here; it may have been measured.

A: 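Cell assay of Leishmania donovani living inside macrophages; the read-out is not stated. Tested at 30 µM. Higher reads as stronger inhibition (inferred: compounds with an IC50 in retests scored well above the rest). Of about 69,000 compounds tested this way, about 1,000 (1.5%) reached 50% or more in at least one test.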
B: 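Enzyme assay of histidyl-tRNA synthetase; the read-out is not stated. Target: Histidine-tRNA ligase, Trypanosoma cruzi CL Brener (UniProt Q4DA54). Compounds at 30 µM. Direction is inferred from retests: higher values go with stronger inhibition. Size under these conditions: about 69,000 compounds, about 31 of them at 50% or above in at least one test.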
C: 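Enzyme assay of CoaBC with a phosphate dye (Biomol Green) read at 650 nm. Target: Coenzyme A biosynthesis protein CoaBC, Mycobacterium tuberculosis (UniProt P9WNZ1). Tested at 30 µM. Higher reads as stronger inhibition, judged from the few compounds that gave an IC50. Most strong results did not repeat in a second test. Size under these conditions: about 67,000 compounds, about 40 of them at 50% or above in at least one test.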
D: 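ClpP1P2, Mycobacterium tuberculosis (UniProt P9WPC5 and UniProt P9WPC3). Protease assay of ClpP1P2, read by the AMC dye that it sets free. Tested at 50 µM. Higher reads as stronger inhibition, judged from the few compounds that gave an IC50. Most other retested compounds had strongly negative values. About 69,000 compounds were tested under these conditions; 0.015% (about 10) showed 50% or more at least once.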
E: 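Enzyme assay of the cytosolic lysyl-tRNA synthetase in 384-well plates, read by luminescence. Target: Lysine-tRNA ligase, Plasmodium falciparum 3D7 (UniProt Q8IDJ8). Concentration: 30 µM. Direction is inferred from only a few compounds that gave an IC50; most scored high, so higher reads as stronger inhibition. Of about 69,000 compounds tested this way, about 49 (0.071%) reached 50% or more in at least one test.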

Compound,A,B,C,D,E
NS(=O)(=O)CCNC(=O)c1cc(Br)c2c(c1)OCCO2,-2.46,8.046,6.519,-3.313,-2.915
COCC(=O)NCc1cccc(OCCN(C)C2CCOCC2)c1,13.94,1.97,1.603,-7.732,2.856
CN(C)C(=O)COCC1CN(Cc2ccco2)Cc2ncn(C)c21 (stereo unspecified),-,4.444,3.659,-4.811,5.543
c1cc(NCc2ccsc2)cc(-c2nnc[nH]2)c1,34.15,5.455,-4.136,-5.102,0.3747
Cc1cc(C(=O)N2C[C@@H](CN3CCOCC3)C[C@H](CO)C2)nc(C)n1,16.42,5.357,3.045,-8.488,5.096
NCCN1C(=O)CC[C@H]2CN(Cc3ccc4occc4c3)CC[C@H]21,-,1.948,2.781,-10.97,2.198
Cc1nc(C)n(CC2CN(Cc3nc4ccccc4n3C)CCO2)n1 (stereo unspecified),10.63,2.312,3.781,-39.57,2.17
Cn1nc(CN2CCCN(C3CCCC3)CC2)c2c(Cl)cccc21,33.65,19.39,0.3745,-9.955,6.232
Nc1nc(CCCNC(=O)c2ccc(C3CCCNC3)cc2)cs1 (stereo unspecified),19.48,7.182,-25.89,-0.4296,4.659
O=C(O)C(F)(F)F.O=C(O)C(F)(F)F.[H][C@@]12CN(C(=O)c3ccsc3)C[C@]1([H])OCCN2CCN(C)C,23.82,-,-,-,-
CCC(C)(NCc1cccc(NC(C)=O)c1)c1nc(C)cs1 (stereo unspecified),26.61,1.163,-6.009,0.4248,6.974
CC(C)n1cc(C(=O)NCC(CO)Cc2cccs2)cn1 (stereo unspecified),16.82,10.45,-0.2469,15.56,1.351
O=C(c1ccc[nH]1)N1CCC2(CC1)COCCN(c1nccs1)C2,13.27,5.882,5.833,-4.343,1.93
CCOc1cc(C)nc(N2CCN(C(=O)Cn3cc(C)cn3)CC2)n1,9.79,4.094,4.337,-15.94,0.4877
O=C1CCCN1CCN1CCC(c2ccn[nH]2)CC1,-11.48,2.174,-6.25,14,3.827
CS(=O)(=O)N1CC2(CCN(C(=O)c3csnn3)CC2)c2ccccc21,20.11,2.913,2.703,-4.879,2
CCC(C)NC(=O)CS(=O)(=O)Cc1cc(C)ccc1C (stereo unspecified),16.3,1.587,4.339,12.19,6.502
CS(=O)(=O)N1C[C@@H]2CC[C@H](C1)N(C(=O)CCc1ccsc1)C2,-,5.319,7.592,-11.94,2.846
CCCn1nnnc1COc1ccc(C(=O)OC)cc1OC,1.576,11.06,3.435,-3.242,3.191
O=C(NC1CCCC1)c1cc(C2CCCNC2)n[nH]1 (stereo unspecified),-,8.647,10.49,-2.949,-0.1373
CC(C(=O)NCCOc1ccc2c(c1)OCO2)n1cncn1 (stereo unspecified),29.7,-1.504,0.5141,3.856,8.782
[H][C@]12CC(Cn3cccn3)N(C)[C@@]1([H])CCN(Cc1cnn(C)c1)C2 (stereo partly specified),0.7314,-,-,-,-
CC(C)CN1CCN(Cc2nc3ccccc3[nH]2)[C@H]2CS(=O)(=O)C[C@H]21,-,5.085,-0.8811,-6.364,6.213
Cc1oncc1C(=O)N1C[C@H](OCc2ccccn2)[C@H]2OCCC[C@H]21,-,8.537,4.261,-1.568,6.502
CN(C)C(=O)N1Cc2nnn(C)c2C(COCc2cccnc2)C1.O=C(O)C(F)(F)F (stereo unspecified),3.207,-,-,-,-
CC(NCc1cccc(C#N)c1)c1ccccn1 (stereo unspecified),-,4.211,-8.765,4.75,1.172
CCOc1ncccc1CNC(=O)NCCNC(=O)c1ccco1,-7.065,5.65,3.394,-31.6,1.348
CN(C(=O)c1cccc(Cl)c1)C1CCN(c2ccccn2)CC1,-23.12,6.706,6.266,-35.72,0.09483
COc1ccc(S(=O)(=O)NCCn2cnc(C)cc2=O)cc1C,-32.71,6,0.4843,-19.62,0.8527
NC1CCCc2c1cnn2-c1cc(F)cc(F)c1 (stereo unspecified),-4.914,4.348,14.59,-14.83,-2.044
CC(=O)N1CCc2[nH]cnc2C1C1=CCCN(CCn2cccc2)C1 (stereo unspecified),-12.84,7.2,-3.68,-58.84,5.139
CCc1sc(-c2nnc(CNCCn3cccn3)o2)cc1C,-7.019,-2.02,9.076,8.092,-1.519

The first 3 entries again:

Compound,A,B,C,D,E
NS(=O)(=O)CCNC(=O)c1cc(Br)c2c(c1)OCCO2,-2.46,8.046,6.519,-3.313,-2.915
COCC(=O)NCc1cccc(OCCN(C)C2CCOCC2)c1,13.94,1.97,1.603,-7.732,2.856
CN(C)C(=O)COCC1CN(Cc2ccco2)Cc2ncn(C)c21 (stereo unspecified),-,4.444,3.659,-4.811,5.543